Measured values published in publication doi:10.1101/2022.03.17.484791.
Positions count from the first letter of the chain named. These are yes or no findings as the source states them, for the method shown. For some assays here: In cells and extracts the contact can be indirect. Some binding calls cover weakened binding; strength is not graded here. Sequences can lack the tags named with a protein.

By UniProt entry, the sequences of proteins in these tests, tags left out.
UniProt Q92973: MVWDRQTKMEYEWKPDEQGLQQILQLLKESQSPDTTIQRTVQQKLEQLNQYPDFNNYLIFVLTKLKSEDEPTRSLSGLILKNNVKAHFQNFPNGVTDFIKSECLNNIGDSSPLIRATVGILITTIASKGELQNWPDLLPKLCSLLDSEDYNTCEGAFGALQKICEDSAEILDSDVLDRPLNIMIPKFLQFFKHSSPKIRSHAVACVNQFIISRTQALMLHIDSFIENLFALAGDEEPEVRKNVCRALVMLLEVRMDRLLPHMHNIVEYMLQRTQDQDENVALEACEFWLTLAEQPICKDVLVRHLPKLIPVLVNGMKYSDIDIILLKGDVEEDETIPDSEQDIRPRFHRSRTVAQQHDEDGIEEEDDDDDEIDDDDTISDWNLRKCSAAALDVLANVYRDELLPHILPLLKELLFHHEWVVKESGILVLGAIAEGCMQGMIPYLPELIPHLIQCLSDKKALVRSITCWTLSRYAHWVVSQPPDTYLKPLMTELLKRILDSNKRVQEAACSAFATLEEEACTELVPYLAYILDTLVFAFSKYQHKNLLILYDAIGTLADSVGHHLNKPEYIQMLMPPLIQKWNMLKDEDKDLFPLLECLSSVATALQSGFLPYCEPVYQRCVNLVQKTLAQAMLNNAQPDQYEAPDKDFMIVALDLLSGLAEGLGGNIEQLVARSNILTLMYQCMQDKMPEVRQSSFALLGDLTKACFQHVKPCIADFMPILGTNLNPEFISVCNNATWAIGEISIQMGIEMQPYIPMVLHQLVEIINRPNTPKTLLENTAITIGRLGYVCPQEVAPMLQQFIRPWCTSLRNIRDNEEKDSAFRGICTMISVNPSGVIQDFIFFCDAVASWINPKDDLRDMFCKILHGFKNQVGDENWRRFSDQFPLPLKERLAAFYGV

Legend:
[1] = biological target: T1, GST-hnRNPH2 PY-NLS P209L (aa 169-225) (human) (UniProt P55795); experiment: pull-down
T1 sequence: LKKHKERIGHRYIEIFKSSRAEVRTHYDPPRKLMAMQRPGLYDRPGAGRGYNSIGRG

[2] = biological target: T2, GST-hnRNPH2 PY-NLS WT (aa 169-225) (human) (UniProt P55795); experiment: pull-down
T2 sequence: T1 sequence with L41P

[3] = biological target: T3, GST-hnRNPH2 PY-NLS R206Q (aa 169-225) (human) (UniProt P55795); experiment: pull-down
T3 sequence: T1 sequence with R38Q, L41P

[4] = biological target: T4, GST-hnRNPH2 PY-NLS R206W (aa 169-225) (human) (UniProt P55795); experiment: pull-down
T4 sequence: T1 sequence with R38W, L41P

[5] = biological target: T5, FLAG-hnRNPH2 WT, full-length (human) (UniProt P55795); experiment: co-IP
T5 sequence: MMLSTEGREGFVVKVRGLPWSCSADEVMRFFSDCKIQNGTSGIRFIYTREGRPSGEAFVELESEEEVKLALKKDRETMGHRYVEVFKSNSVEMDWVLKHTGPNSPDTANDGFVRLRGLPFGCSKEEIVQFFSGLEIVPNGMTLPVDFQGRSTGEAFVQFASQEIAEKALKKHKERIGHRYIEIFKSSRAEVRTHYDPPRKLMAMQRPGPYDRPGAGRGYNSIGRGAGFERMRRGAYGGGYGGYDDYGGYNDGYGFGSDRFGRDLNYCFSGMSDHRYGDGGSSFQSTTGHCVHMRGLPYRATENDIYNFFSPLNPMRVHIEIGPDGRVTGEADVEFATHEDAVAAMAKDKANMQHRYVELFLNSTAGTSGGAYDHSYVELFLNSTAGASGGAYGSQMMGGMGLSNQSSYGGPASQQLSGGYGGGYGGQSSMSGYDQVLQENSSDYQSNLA

[6] = biological target: T6, FLAG-hnRNPH2 P209L, full-length (human) (UniProt P55795); experiment: co-IP
T6 sequence: T5 sequence with P209L

[7] = biological target: T7, FLAG-hnRNPH2 D340V, full-length (human) (UniProt P55795); experiment: co-IP
T7 sequence: T5 sequence with D340V

[8] = biological target: T8, FLAG-hnRNPH2 R206G, full-length (human) (UniProt P55795); experiment: co-IP
T8 sequence: T5 sequence with R206G

[9] = biological target: T9, FLAG-hnRNPH2 R206Q, full-length (human) (UniProt P55795); experiment: co-IP
T9 sequence: T5 sequence with R206Q

[10] = biological target: T10, FLAG-hnRNPH2 R206W, full-length (human) (UniProt P55795); experiment: co-IP
T10 sequence: T5 sequence with R206W

[11] = biological target: T11, FLAG-hnRNPH2 Y210C, full-length (human) (UniProt P55795); experiment: co-IP
T11 sequence: T5 sequence with Y210C

Measured: binding

Kapβ2 (karyopherin β2), protein added at 8 μM in the GST pulldown (from UniProt Q92973 1-898) (receptor)
binds: [1] | [2] | [3] | [4]

Kapβ2, endogenous in HEK293T cells (from UniProt Q92973 1-898) (receptor)
not listed: [1] | [2] | [3] | [4]
binds: all other assays above
